# Results published in patent publication US10023601B2, “Hydrolysis resistant sialic acid derivatives and methods for their use” (The University of British Columbia, priority 2014, dated 2018).
# For at least one compound, name, drawing or mass did not settle the structure.
# Target: T1, truncated oligosialyltransferase variant (GT 29 family) (Homo sapiens, UniProt O43173)
# T1 construct: made in house; host or cells: baculovirus insect cell system
# T1 sequence (O43173 81-380 limits assumed): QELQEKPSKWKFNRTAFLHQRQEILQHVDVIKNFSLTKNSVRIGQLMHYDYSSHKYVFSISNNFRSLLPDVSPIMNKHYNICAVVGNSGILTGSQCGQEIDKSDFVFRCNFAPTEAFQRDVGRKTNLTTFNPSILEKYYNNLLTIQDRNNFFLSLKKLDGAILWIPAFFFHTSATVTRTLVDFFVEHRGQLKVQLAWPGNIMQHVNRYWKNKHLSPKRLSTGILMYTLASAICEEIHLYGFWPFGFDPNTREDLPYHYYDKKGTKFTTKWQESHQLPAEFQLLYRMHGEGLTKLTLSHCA
# Experiment: Protein α2,8-sialylation of fetuin by recombinant mammalian sialyltransferase variant, SDS-PAGE mobility shift
# Assay type: biochemical
# Conditions: hypersialylation
smiles,measurement,value
"CC(=O)N[C@H]1[C@H]([C@H](O)[C@H](O)CO)OC(O)(C(=O)O)C[C@@H]1O (some centres unmarked) [SA, sialic acid]",mass shift of fetuin,15-20 kDa
same,units transferred corresponding to mass shift,50-60 SA units
